Test results published in patent US9308157B2, “Whitening cosmetic” (AJINOMOTO CO., INC., priority 2011, dated 2016).
Values joined by “and” are separate entries in the source; they are usually repeats but may differ in a detail not shown here. Equal values may be shown once. At least one read-out could not be matched to a standard name with certainty.

Test system: B16 melanoma
Assay: Melanin production rate measurement (Experimental Example 1, 6 well plate, medium + cell melanin)
Type: cell-based
Conditions: 0.5 mM, single use, 3 days, control = 100%
Protocol: B16 melanoma was cultured in DMEM (Dulbecco's Modified Eagle Medium) (high glucose, containing 10% serum). After confluence, the cells were seeded on a 6 well plate. The next day, each well medium was exchanged with DMEM (300 μM tyrosine added) added with each evaluation sample at a given evaluation concentration (Table 1), and the cells were cultured for 3 days. […] The medium was recovered, and centrifuged at 10000 rpm for 10 min. The absorbance of the supernatant at 450 nm was measured by spectrophotometer. The medium was recovered, and the cells were rinsed once with PBS (phosphate-buffered saline). […] The absorbance (450 nm) of the supernatant was measured by spectrophotometer. The total of the melanin amount in the medium and in the cell was calculated from the analytical curve drawn using synthetic melanin. By setting the calculated value 3 days after addition of each sample at a given concentration as a relative percentage to the calculated value of the control (no sample addition) defined as 100%, the melanin production rate of each sample to the melanin amount in the control as 100% was calculated. […]
The melanin production rate of each sample was measured for a single use and combined use, and the effect of the combined use was evaluated by the following criteria using the theoretical value. […]

In the case of OC[C@H]1O[C@@H](Oc2ccc(O)cc2)[C@H](O)[C@@H](O)[C@@H]1O [arbutin], the “Melanin production rate (single)” value was 85.5% and 45.2%.
